From article PMC3589417
Results are given in words; binding and its absence hold for the method and conditions named. In cells and extracts the contact can be indirect. These calls come from enrichment with a bait or labelling near it, and not all partners need be listed.

Protein sequences, listed by entry. Tags and fused reporters are not part of them.
UniProt P62258: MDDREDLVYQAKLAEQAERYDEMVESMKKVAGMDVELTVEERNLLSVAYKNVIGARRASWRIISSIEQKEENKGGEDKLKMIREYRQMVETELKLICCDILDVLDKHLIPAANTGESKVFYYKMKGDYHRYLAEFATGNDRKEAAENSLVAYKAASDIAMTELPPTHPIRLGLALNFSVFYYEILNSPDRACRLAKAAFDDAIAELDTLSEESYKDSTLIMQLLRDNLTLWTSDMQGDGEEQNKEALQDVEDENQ
UniProt Q13547: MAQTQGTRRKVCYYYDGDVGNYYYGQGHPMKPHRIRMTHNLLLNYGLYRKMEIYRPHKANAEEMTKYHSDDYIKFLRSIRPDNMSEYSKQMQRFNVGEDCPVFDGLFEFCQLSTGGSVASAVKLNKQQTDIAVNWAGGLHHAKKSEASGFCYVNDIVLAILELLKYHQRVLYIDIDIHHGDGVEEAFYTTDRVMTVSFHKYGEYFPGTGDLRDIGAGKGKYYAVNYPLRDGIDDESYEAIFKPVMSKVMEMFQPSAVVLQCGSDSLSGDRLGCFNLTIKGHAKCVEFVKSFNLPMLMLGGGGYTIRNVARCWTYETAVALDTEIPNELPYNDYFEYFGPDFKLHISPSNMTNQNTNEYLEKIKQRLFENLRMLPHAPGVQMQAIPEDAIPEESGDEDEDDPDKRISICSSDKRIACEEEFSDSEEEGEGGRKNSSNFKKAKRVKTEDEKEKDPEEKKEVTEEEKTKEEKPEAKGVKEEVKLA
UniProt Q8TAQ2: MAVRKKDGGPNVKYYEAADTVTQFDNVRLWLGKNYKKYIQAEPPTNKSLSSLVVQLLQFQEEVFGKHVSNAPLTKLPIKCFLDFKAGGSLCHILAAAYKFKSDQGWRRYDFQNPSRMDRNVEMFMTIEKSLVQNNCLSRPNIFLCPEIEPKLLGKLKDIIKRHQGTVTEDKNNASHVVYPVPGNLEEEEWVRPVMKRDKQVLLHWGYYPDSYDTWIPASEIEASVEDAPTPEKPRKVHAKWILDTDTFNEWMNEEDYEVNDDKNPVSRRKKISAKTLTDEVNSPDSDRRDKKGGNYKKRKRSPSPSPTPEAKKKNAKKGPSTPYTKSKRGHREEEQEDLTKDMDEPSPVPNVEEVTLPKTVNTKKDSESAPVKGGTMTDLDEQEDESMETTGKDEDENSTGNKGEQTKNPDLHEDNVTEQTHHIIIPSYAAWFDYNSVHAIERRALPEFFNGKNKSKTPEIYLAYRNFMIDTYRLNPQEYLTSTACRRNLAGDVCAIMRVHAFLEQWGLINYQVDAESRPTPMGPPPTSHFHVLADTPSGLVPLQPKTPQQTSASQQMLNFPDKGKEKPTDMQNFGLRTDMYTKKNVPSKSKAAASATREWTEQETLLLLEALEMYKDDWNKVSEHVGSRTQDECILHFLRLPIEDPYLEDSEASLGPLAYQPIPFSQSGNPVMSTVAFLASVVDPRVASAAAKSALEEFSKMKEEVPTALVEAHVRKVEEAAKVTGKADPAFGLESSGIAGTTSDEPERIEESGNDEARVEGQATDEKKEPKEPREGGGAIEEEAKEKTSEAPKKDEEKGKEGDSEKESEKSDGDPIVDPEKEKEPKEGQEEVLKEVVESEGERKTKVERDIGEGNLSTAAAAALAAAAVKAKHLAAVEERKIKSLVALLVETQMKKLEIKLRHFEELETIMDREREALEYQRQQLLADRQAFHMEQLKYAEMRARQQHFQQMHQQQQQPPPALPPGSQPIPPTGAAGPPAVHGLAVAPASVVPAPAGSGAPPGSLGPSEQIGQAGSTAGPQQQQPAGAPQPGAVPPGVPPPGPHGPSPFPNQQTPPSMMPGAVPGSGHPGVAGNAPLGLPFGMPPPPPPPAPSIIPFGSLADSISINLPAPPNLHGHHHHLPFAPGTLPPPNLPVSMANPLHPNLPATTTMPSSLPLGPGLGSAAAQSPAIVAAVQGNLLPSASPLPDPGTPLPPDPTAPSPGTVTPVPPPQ
UniProt Q9UBN7: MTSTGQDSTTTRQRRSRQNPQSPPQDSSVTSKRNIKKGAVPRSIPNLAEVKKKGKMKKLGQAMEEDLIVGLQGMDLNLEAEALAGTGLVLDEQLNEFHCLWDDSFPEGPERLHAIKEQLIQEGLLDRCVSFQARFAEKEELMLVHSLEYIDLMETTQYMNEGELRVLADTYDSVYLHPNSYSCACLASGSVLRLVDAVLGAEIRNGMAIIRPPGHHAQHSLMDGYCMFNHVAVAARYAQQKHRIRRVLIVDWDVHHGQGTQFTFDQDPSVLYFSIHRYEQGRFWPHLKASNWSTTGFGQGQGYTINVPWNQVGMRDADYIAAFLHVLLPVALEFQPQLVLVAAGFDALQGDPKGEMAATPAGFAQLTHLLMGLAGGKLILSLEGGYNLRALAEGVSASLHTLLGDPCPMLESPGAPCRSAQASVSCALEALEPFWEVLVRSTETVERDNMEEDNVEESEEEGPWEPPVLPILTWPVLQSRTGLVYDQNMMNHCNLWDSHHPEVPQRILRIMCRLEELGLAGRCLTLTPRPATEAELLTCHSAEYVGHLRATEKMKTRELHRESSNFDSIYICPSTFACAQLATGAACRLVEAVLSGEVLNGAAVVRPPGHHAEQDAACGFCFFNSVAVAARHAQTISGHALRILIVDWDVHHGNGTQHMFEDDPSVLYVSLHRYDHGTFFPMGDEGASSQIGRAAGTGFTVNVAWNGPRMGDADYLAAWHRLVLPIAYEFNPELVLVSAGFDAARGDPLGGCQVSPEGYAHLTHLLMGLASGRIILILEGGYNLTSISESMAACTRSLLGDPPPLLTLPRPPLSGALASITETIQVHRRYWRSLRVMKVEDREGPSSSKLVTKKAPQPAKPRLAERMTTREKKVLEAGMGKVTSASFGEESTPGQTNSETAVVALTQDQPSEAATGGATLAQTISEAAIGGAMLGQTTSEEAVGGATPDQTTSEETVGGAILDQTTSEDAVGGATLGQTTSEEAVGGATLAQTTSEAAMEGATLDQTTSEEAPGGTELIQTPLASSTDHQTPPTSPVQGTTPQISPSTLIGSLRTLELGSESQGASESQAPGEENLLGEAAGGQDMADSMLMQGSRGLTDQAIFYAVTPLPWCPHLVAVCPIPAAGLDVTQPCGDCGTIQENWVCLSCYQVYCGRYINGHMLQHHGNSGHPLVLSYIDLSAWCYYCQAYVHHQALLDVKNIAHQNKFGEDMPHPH
UniProt Q09028: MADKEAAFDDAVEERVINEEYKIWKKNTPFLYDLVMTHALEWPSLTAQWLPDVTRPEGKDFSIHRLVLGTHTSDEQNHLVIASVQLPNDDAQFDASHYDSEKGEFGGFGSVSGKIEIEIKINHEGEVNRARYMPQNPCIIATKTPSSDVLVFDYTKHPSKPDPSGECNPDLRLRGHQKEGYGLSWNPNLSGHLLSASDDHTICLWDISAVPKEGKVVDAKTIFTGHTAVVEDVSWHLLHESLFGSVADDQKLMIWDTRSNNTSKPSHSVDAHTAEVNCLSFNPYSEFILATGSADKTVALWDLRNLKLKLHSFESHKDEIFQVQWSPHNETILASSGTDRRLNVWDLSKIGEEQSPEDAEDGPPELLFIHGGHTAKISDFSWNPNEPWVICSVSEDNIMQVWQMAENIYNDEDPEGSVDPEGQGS
UniProt Q16531: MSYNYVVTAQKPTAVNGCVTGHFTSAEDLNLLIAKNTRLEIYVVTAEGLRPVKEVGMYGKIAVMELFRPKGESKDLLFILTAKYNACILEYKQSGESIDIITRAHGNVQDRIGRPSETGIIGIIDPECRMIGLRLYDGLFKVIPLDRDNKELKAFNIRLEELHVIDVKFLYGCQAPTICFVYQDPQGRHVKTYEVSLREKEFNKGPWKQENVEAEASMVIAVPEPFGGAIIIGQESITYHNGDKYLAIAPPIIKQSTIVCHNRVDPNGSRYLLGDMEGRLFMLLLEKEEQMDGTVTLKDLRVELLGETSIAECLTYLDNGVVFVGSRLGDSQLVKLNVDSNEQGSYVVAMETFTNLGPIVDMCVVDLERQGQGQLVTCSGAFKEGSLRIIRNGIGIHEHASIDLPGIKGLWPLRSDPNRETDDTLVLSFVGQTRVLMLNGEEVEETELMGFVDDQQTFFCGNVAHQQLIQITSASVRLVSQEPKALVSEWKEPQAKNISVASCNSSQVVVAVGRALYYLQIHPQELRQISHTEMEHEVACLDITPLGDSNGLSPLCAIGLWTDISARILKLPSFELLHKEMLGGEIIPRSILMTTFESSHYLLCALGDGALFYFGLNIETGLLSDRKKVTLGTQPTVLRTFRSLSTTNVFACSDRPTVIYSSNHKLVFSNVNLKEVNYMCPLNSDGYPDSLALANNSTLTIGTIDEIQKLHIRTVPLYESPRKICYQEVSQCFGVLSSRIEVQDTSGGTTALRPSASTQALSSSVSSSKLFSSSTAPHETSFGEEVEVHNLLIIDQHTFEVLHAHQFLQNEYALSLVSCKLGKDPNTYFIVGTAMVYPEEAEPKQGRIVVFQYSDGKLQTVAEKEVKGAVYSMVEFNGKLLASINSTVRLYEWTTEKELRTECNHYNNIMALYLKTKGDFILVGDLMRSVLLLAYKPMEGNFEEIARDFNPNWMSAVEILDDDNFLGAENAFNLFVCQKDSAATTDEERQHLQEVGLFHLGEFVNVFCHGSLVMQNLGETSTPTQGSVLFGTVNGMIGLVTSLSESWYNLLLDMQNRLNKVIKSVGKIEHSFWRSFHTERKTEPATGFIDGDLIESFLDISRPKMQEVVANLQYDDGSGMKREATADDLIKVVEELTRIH

B1: PA2G4 (protein, UniProt Q9UQ80 1-394)
chain: MSGEDEQQEQTIAEDLVVTKYKMGGDIANRVLRSLVEASSSGVSVLSLCEKGDAMIMEETGKIFKKEKEMKKGIAFPTSISVNNCVCHFSPLKSDQDYILKEGDLVKIDLGVHVDGFIANVAHTFVVDVAQGTQVTGRKADVIKAAHLCAEAALRLVKPGNQNTQVTEAWNKVAHSFNCTPIEGMLSHQLKQHVIDGEKTIIQNPTDQQKKDHEKAEFEVHEVYAVDVLVSSGEGKAKDAGQRTTIYKRDPSKQYGLKMKTSRAFFSEVERRFDAMPFTLRAFEDEKKARMGVVECAKHELLQPFNVLYEKEGEFVAQFKFTVLLMPNGPMRITSGPFEPDLYKSEMEVQDAELKALLQSSASRKTQKKKKKKASKTAENATSGETLEENEAGD
B2: TAB3 (MAP3K7IP3) (protein, UniProt Q8N5C8 1-712)
chain: MAQSSPQLDIQVLHDLRQRFPEIPEGVVSQCMLQNNNNLEACCRALSQESSKYLYMEYHSPDDNRMNRNRLLHINLGIHSPSSYHPGDGAQLNGGRTLVHSSSDGHIDPQHAAGKQLICLVQEPHSAPAVVAATPNYNPFFMNEQNRSAATPPSQPPQQPSSMQTGMNPSAMQGPSPPPPPPSYMHIPRYSTNPITVTVSQNLPSGQTVPRALQILPQIPSNLYGSPGSIYIRQTSQSSSGRQTPQSTPWQSSPQGPVPHYSQRPLPVYPHQQNYQPSQYSPKQQQIPQSAYHSPPPSQCPSPFSSPQHQVQPSQLGHIFMPPSPSTTPPHPYQQGPPSYQKQGSHSVAYLPYTASSLSKGSMKKIEITVEPSQRPGTAINRSPSPISNQPSPRNQHSLYTATTPPSSSPSRGISSQPKPPFSVNPVYITYTQPTGPSCTPSPSPRVIPNPTTVFKITVGRATTENLLNLVDQEERSAAPEPIQPISVIPGSGGEKGSHKYQRSSSSGSDDYAYTQALLLHQRARMERLAKQLKLEKEELERLKSEVNGMEHDLMQRRLRRVSCTTAIPTPEEMTRLRSMNRQLQINVDCTLKEVDLLQSRGNFDPKAMNNFYDNIEPGPVVPPKPSKKDSSDPCTIERKARRISVTSKVQADIHDTQAAAADEHRTGSTQSPRTQPRDEDYEGAPWNCDSCTFLNHPALNRCEQCEMPRYT
B3: TAK1 (MAP3K7) (protein, UniProt O43318 1-606)
chain: MSTASAASSSSSSSAGEMIEAPSQVLNFEEIDYKEIEVEEVVGRGAFGVVCKAKWRAKDVAIKQIESESERKAFIVELRQLSRVNHPNIVKLYGACLNPVCLVMEYAEGGSLYNVLHGAEPLPYYTAAHAMSWCLQCSQGVAYLHSMQPKALIHRDLKPPNLLLVAGGTVLKICDFGTACDIQTHMTNNKGSAAWMAPEVFEGSNYSEKCDVFSWGIILWEVITRRKPFDEIGGPAFRIMWAVHNGTRPPLIKNLPKPIESLMTRCWSKDPSQRPSMEEIVKIMTHLMRYFPGADEPLQYPCQYSDEGQSNSATSTGSFMDIASTNTSNKSDTNMEQVPATNDTIKRLESKLLKNQAKQQSESGRLSLGASRGSSVESLPPTSEGKRMSADMSEIEARIAATTAYSKPKRGHRKTASFGNILDVPEIVISGNGQPRRRSIQDLTVTGTEPGQVSSRSSSPSVRMITTSGPTSEKPTRSHPWTPDDSTDTNGSDNSIPMAYLTLDHQLQPLAPCPNSKESMAVFEQHCKMAQEYMKVQTEIALLLQRKQELVAELDQDEKDQQNTSRLVQEHKKLLDENKSLSTYYQQCKKQLEVIRSQQQKRQGTS
B4: NONO (protein, UniProt Q15233 1-471)
chain: MQSNKTFNLEKQNHTPRKHHQHHHQQQHHQQQQQQPPPPPIPANGQQASSQNEGLTIDLKNFRKPGEKTFTQRSRLFVGNLPPDITEEEMRKLFEKYGKAGEVFIHKDKGFGFIRLETRTLAEIAKVELDNMPLRGKQLRVRFACHSASLTVRNLPQYVSNELLEEAFSVFGQVERAVVIVDDRGRPSGKGIVEFSGKPAARKALDRCSEGSFLLTTFPRPVTVEPMDQLDDEEGLPEKLVIKNQQFHKEREQPPRFAQPGSFEYEYAMRWKALIEMEKQQQDQVDRNIKEAREKLEMEMEAARHEHQVMLMRQDLMRRQEELRRMEELHNQEVQKRKQLELRQEEERRRREEEMRRQQEEMMRRQQEGFKGTFPDAREQEIRMGQMAMGGAMGINNRGAMPPAPVPAGTPAPPGPATMMPDGTLGLTPPTTERFGQAATMEGIGAIGGTPPAFNRAAPGAEFAPNKRRRY
B5: MATR3 (Matrin 3) (protein, UniProt P43243 1-847)
chain: MSKSFQQSSLSRDSQGHGRDLSAAGIGLLAAATQSLSMPASLGRMNQGTARLASLMNLGMSSSLNQQGAHSALSSASTSSHNLQSIFNIGSRGPLPLSSQHRGDADQASNILASFGLSARDLDELSRYPEDKITPENLPQILLQLKRRRTEEGPTLSYGRDGRSATREPPYRVPRDDWEEKRHFRRDSFDDRGPSLNPVLDYDHGSRSQESGYYDRMDYEDDRLRDGERCRDDSFFGETSHNYHKFDSEYERMGRGPGPLQERSLFEKKRGAPPSSNIEDFHGLLPKGYPHLCSICDLPVHSNKEWSQHINGASHSRRCQLLLEIYPEWNPDNDTGHTMGDPFMLQQSTNPAPGILGPPPPSFHLGGPAVGPRGNLGAGNGNLQGPRHMQKGRVETSRVVHIMDFQRGKNLRYQLLQLVEPFGVISNHLILNKINEAFIEMATTEDAQAAVDYYTTTPALVFGKPVRVHLSQKYKRIKKPEGKPDQKFDQKQELGRVIHLSNLPHSGYSDSAVLKLAEPYGKIKNYILMRMKSQAFIEMETREDAMAMVDHCLKKALWFQGRCVKVDLSEKYKKLVLRIPNRGIDLLKKDKSRKRSYSPDGKESPSDKKSKTDGSQKTESSTEGKEQEEKSGEDGEKDTKDDQTEQEPNMLLESEDELLVDEEEAAALLESGSSVGDETDLANLGDVASDGKKEPSDKAVKKDGSASAAAKKKLKKVDKIEELDQENEAALENGIKNEENTEPGAESSENADDPNKDTSENADGQSDENKDDYTIPDEYRIGPYQPNVPVGIDYVIPKTGFYCKLCSLFYTNEEVAKNTHCSSLPHYQKLKKFLNKLAEERRQKKET
B6: TAB1 (MAP3K7IP1) (protein, UniProt Q15750 1-504)
chain: MAAQRRSLLQSEQQPSWTDDLPLCHLSGVGSASNRSYSADGKGTESHPPEDSWLKFRSENNCFLYGVFNGYDGNRVTNFVAQRLSAELLLGQLNAEHAEADVRRVLLQAFDVVERSFLESIDDALAEKASLQSQLPEGVPQHQLPPQYQKILERLKTLEREISGGAMAVVAVLLNNKLYVANVGTNRALLCKSTVDGLQVTQLNVDHTTENEDELFRLSQLGLDAGKIKQVGIICGQESTRRIGDYKVKYGYTDIDLLSAAKSKPIIAEPEIHGAQPLDGVTGFLVLMSEGLYKALEAAHGPGQANQEIAAMIDTEFAKQTSLDAVAQAVVDRVKRIHSDTFASGGERARFCPRHEDMTLLVRNFGYPLGEMSQPTPSPAPAAGGRVYPVSVPYSSAQSTSKTSVTLSLVMPSQGQMVNGAHSASTLDEATPTLTNQSPTLTLQSTNTHTQSSSSSSDGGLFRSRPAHSLPPGEDGRVEPYVDFAEFYRLWSVDHGEQSVVTAP

Target: FLAG-tagged human 14-3-3ε (human) (UniProt P62258)
Test: affinity purification with mass spectrometry; anti-FLAG beads on lysates of HCC cells stably expressing FLAG-14-3-3ε, BLM 20 mU/ml 2 h (light) against untreated (Leu-d3, heavy); 4°C 4 h, washed with TBS, eluted with FLAG peptide, mixed 1:1, SDS-PAGE, nano-LC-MS/MS

| binding | Molecule |
| --- | --- |
| binds | HDAC1 (from UniProt Q13547 1-482) |
| binds | SMARCC2 (from UniProt Q8TAQ2 1-1214) |
| binds | HDAC6 (from UniProt Q9UBN7 1-1215) |
| binds | RBBP4 (from UniProt Q09028 1-425) |
| binds | Damage-specific DNA binding protein 1 (from UniProt Q16531 1-1140) |
| binds | B1 |
| binds | B2 |
| binds | B3 |
| binds | B4 |
| binds | B5 |
| binds | B6 |
